In the supplement of paper PMC10849652:
The other results are listed elsewhere or left out.

Amino acid sequences for entries named in this document (tags omitted). A change or cut given only in a name is not applied to a line headed by its entry.
UniProt O00258: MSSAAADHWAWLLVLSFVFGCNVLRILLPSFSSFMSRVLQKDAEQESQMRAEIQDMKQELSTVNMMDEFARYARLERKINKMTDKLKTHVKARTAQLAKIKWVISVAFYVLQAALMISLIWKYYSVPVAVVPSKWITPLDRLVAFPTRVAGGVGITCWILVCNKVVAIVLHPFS
UniProt P57081: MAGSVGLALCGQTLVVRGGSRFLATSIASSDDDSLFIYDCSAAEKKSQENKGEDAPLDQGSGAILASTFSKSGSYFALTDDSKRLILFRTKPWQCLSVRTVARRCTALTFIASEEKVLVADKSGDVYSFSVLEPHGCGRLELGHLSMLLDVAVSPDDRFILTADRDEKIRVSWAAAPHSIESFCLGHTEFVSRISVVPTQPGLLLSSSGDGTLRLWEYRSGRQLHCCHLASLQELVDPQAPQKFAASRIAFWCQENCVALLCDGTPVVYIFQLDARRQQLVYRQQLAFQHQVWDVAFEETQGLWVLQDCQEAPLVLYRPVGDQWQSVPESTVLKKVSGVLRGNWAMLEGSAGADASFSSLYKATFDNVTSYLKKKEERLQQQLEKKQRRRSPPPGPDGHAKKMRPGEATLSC
UniProt Q709C8: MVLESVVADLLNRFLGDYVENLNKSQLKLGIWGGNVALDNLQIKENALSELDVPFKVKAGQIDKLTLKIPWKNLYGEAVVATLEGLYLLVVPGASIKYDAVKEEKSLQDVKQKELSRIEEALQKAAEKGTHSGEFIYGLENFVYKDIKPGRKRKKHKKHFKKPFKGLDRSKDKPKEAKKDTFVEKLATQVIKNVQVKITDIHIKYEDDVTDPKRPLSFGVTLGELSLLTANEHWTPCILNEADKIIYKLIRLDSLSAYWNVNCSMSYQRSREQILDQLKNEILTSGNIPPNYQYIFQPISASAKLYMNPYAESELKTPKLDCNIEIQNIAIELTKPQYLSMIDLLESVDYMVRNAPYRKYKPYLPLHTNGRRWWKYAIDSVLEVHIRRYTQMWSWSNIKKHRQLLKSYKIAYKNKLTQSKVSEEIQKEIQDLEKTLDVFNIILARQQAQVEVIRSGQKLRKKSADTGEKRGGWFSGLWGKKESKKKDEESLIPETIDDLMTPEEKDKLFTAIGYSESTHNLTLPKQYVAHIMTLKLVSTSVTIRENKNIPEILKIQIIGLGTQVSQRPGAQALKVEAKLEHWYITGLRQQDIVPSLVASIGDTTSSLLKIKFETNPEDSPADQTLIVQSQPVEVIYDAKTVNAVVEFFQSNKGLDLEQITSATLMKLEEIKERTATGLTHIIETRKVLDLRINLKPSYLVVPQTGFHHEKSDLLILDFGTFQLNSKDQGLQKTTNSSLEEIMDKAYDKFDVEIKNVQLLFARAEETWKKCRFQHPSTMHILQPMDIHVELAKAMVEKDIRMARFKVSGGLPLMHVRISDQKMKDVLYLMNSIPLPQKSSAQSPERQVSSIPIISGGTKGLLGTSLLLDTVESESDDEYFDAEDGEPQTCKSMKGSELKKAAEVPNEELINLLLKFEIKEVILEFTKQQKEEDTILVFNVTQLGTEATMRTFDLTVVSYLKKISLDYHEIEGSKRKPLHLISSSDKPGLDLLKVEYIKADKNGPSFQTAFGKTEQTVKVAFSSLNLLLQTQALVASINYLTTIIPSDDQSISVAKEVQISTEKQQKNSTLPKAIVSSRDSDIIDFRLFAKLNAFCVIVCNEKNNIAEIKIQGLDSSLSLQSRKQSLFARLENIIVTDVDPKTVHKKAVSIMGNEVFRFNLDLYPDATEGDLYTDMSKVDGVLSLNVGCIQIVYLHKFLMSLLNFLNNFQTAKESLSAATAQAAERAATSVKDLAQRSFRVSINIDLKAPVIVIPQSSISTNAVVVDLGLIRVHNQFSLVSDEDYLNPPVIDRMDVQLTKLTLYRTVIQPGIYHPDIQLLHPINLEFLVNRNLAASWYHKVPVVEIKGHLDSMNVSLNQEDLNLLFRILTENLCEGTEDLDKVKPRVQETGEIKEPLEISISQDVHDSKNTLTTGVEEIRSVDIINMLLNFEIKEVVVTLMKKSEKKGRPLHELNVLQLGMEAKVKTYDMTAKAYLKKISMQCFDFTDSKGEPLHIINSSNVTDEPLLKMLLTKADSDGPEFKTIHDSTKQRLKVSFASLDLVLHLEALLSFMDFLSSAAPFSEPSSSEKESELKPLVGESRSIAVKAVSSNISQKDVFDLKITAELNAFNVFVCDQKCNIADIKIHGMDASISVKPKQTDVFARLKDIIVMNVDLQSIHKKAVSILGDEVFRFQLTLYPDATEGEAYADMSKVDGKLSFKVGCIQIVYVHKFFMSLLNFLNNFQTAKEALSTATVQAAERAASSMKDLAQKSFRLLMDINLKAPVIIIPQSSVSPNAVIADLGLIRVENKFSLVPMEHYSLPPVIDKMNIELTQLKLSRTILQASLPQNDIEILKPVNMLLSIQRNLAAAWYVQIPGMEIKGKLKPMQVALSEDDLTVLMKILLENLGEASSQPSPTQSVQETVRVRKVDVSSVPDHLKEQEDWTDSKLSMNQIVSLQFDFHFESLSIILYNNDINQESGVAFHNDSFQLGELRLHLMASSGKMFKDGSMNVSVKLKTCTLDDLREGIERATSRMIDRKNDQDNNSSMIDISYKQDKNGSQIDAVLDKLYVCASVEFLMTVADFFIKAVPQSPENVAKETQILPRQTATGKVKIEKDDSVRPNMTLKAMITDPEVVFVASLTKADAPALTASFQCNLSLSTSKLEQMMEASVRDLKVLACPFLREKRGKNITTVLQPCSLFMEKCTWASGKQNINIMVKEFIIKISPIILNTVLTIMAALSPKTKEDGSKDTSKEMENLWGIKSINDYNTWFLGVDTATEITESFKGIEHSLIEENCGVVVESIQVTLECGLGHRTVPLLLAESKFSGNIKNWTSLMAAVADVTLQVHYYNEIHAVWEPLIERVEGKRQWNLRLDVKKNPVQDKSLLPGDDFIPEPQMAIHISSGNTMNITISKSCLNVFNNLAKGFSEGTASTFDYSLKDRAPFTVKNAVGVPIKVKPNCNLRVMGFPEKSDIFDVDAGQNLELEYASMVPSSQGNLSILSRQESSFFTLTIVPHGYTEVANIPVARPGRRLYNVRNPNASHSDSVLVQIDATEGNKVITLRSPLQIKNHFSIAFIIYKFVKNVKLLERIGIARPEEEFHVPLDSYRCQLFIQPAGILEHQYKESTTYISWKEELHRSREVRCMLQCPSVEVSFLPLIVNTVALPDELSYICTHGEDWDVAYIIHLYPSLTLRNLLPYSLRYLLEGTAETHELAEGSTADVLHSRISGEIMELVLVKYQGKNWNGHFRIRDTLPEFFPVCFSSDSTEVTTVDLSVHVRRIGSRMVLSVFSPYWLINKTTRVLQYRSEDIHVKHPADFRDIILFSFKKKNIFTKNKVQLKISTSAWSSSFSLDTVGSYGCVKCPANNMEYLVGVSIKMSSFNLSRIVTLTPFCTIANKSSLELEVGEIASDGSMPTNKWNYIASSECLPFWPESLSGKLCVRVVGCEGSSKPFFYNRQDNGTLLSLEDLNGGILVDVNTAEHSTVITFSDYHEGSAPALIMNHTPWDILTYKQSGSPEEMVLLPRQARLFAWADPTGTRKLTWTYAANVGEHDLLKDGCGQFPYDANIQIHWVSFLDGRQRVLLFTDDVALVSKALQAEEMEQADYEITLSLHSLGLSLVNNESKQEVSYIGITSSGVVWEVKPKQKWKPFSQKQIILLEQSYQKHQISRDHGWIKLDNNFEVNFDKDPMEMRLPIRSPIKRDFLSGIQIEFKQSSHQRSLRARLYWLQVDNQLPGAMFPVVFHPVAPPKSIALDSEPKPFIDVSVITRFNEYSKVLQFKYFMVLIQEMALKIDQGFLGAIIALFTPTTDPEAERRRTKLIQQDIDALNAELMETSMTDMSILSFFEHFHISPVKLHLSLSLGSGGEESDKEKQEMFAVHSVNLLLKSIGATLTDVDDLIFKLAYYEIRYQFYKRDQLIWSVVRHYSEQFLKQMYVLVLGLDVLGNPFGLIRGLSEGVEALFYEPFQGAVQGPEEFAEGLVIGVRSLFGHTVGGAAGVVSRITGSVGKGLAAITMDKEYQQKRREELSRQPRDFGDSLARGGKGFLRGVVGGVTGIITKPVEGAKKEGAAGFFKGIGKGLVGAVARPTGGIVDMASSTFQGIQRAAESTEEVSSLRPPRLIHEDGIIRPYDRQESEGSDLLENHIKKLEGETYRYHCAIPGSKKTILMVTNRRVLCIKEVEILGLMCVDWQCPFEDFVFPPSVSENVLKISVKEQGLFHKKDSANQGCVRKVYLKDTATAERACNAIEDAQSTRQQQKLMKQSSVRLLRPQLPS
UniProt A3KMH1: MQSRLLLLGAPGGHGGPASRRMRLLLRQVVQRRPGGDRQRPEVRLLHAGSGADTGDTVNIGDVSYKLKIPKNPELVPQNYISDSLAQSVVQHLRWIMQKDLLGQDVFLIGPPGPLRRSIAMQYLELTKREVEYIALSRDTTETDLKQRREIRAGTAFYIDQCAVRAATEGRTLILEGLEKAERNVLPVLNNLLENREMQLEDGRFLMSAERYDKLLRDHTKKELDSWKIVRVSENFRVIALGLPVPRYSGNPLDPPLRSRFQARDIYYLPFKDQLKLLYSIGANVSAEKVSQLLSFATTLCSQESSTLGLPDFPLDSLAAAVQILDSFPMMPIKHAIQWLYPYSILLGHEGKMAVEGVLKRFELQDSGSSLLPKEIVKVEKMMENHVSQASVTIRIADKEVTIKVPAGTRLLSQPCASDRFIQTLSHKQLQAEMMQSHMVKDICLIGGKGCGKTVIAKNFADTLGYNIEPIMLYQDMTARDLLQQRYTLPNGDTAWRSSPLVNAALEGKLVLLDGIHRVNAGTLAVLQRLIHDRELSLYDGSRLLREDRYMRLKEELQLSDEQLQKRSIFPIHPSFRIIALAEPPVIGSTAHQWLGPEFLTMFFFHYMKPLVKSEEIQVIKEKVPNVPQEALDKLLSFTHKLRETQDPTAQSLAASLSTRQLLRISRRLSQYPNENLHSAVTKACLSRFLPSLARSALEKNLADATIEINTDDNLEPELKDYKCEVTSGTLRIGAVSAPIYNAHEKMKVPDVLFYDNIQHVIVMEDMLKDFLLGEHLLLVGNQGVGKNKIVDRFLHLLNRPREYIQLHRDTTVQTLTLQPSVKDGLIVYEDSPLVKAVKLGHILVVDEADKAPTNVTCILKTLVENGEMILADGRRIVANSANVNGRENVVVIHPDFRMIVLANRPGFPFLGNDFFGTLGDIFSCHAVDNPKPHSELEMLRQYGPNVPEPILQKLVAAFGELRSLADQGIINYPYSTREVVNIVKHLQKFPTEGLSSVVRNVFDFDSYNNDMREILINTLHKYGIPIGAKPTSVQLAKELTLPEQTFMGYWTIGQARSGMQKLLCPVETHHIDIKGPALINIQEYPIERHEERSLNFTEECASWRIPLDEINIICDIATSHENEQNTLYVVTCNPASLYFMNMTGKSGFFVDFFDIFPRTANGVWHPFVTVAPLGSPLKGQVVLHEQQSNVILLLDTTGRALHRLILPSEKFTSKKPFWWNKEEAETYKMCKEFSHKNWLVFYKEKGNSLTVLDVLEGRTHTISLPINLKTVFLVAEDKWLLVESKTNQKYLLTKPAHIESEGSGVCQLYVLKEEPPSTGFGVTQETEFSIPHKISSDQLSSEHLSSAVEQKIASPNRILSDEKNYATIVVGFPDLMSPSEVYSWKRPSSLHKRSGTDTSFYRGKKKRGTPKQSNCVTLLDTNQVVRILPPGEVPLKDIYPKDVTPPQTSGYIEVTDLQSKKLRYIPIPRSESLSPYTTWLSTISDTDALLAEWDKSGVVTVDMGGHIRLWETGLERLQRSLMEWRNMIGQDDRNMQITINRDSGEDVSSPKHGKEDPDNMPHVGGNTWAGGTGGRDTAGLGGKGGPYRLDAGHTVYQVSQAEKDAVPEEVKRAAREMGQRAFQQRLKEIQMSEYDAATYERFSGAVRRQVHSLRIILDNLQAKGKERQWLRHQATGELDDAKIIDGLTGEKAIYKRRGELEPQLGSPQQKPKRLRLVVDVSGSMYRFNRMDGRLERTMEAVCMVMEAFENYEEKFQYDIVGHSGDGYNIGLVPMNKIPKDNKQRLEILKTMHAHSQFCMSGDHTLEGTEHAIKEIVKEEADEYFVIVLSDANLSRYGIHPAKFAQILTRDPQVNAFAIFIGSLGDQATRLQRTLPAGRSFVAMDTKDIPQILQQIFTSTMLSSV
UniProt A5D8V6: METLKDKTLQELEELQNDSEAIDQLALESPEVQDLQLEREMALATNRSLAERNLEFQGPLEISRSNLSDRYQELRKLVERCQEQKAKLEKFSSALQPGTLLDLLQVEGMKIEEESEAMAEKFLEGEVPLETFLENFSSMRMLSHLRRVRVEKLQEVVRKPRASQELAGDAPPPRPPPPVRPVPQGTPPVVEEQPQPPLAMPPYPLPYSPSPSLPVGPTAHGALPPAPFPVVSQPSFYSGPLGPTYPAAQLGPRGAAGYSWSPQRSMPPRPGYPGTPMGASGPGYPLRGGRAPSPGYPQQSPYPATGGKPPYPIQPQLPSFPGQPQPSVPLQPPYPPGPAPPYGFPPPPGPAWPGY

Key:
Experiment in all cases: log2 fold change, soluble protein after heating vs DMSO (PISA); higher = thermal stabilisation; K562 lysate, 10 uM; active = over 0.2 and 3.5 SD of the protein, either way, in both replicates (recomputed)
lapatinib = compound: CS(=O)(=O)CCNCc1ccc(-c2ccc3ncnc(Nc4ccc(OCc5cccc(F)c5)c(Cl)c4)c3c2)o1 [lapatinib]
How it was run: (§1)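 K562 pellets were dounce-homogenised in PBS pH 7.4 containing 1 mM MgCl2, and the crude extract, at 1 mg/mL protein, was exposed to 10 μM compound for 30 min. Aliquots were heated for 3 min across 48°C-58°C, pooled, brought to 0.5% NP-40 at 4°C and spun at 21,000xg for 90 min, with the supernatant taken as soluble protein. TMTpro 16plex LC-MS/MS with equalised channel sums quantified that protein. Values are log-two fold changes in thermal stability relative to solvent controls, taken from duplicates.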

pictilisib = compound: CS(=O)(=O)N1CCN(Cc2cc3nc(-c4cccc5[nH]ncc45)nc(N4CCOCC4)c3s2)CC1 [pictilisib]
How it was run: as §1

crizotinib = compound: C[C@@H](Oc1cc(-c2cnn(C3CCNCC3)c2)cnc1N)c1c(Cl)ccc(F)c1Cl [crizotinib]
How it was run: as §1

[1] = compound: C[C@H](C1=CC=C(C=C1)C(=O)NC2=C3C=CNC3=NC=C2)N
How it was run: as §1

duvelisib = compound: C[C@H](Nc1ncnc2nc[nH]c12)c1cc2cccc(Cl)c2c(=O)n1-c1ccccc1 [duvelisib]
How it was run: as §1

gandotinib = compound: Cc1cc(Nc2cc(CN3CCOCC3)c3nc(C)c(Cc4ccc(Cl)cc4F)n3n2)n[nH]1 [gandotinib]
How it was run: as §1

tozasertib = compound: Cc1cc(Nc2cc(N3CCN(C)CC3)nc(Sc3ccc(NC(=O)C4CC4)cc3)n2)n[nH]1 [tozasertib]
How it was run: as §1

doramapimod = compound: Cc1ccc(-n2nc(C(C)(C)C)cc2NC(=O)Nc2ccc(OCCN3CCOCC3)c3ccccc23)cc1 [doramapimod]
How it was run: as §1

bafetinib = compound: Cc1ccc(NC(=O)c2ccc(CN3CC[C@H](N(C)C)C3)c(C(F)(F)F)c2)cc1Nc1nccc(-c2cncnc2)n1 [bafetinib]
How it was run: as §1

[2] = compound: Cc1cccc(CC(=O)N2CCc3c2ccc(-c2cn(C)c4ncnc(N)c24)c3F)n1
How it was run: as §1

| Target | log2 fold change (lapatinib) | log2 fold change (pictilisib) | log2 fold change (crizotinib) | log2 fold change [1] | log2 fold change (duvelisib) | log2 fold change (gandotinib) | log2 fold change (tozasertib) | log2 fold change (doramapimod) | log2 fold change (bafetinib) | log2 fold change [2] |
| --- | --- | --- | --- | --- | --- | --- | --- | --- | --- | --- |
| WRB (UniProt O00258) | inactive: -0.067 | inactive: -0.118 | inactive: 0.034 | inactive: -0.138 | inactive: 0.006 | active: 0.348 | inactive: -0.033 | inactive: -0.074 | inactive: -0.017 | inactive: 0.339 |
| WASHC5 (UniProt Q12768) | inactive: 0.001 | inactive: -0.038 | inactive: -0.025 | inactive: -0.043 | inactive: -0.019 | inactive: -0.001 | inactive: -0.003 | inactive: 0.043 | inactive: -0.067 | inactive: 0.052 |
| VPS45 (UniProt Q9NRW7) | inactive: -0.002 | inactive: -0.043 | inactive: -0.029 | inactive: -0.022 | inactive: -0.025 | inactive: -0.042 | inactive: -0.021 | inactive: -0.013 | inactive: -0.039 | inactive: -0.026 |
| WDR4 (UniProt P57081) | inactive: -0.014 | inactive: -0.022 | inactive: -0.048 | inactive: 0.017 | inactive: 0.032 | inactive: -0.049 | inactive: -0.016 | inactive: 0.055 | inactive: -0.008 | inactive: -0.036 |
| WDR44 (UniProt Q5JSH3) | inactive: -0.007 | inactive: -0.015 | inactive: -0.028 | inactive: -0.049 | inactive: 0.003 | inactive: 0.058 | inactive: -0.011 | inactive: 0.026 | inactive: -0.025 | inactive: 0.013 |
| WDR81 (UniProt Q562E7) | inactive: -0.009 | inactive: -0.11 | inactive: -0.005 | inactive: 0.019 | inactive: -0.071 | inactive: -0.05 | inactive: -0.085 | inactive: 0.022 | inactive: -0.006 | inactive: 0.043 |
| WIZ isoform 3 (UniProt O95785) | inactive: 0.001 | inactive: -0.009 | inactive: 0.018 | inactive: -0.061 | inactive: 0.001 | inactive: 0.003 | inactive: 0.038 | inactive: -0.003 | inactive: -0.042 | inactive: 0.003 |
| VPS18 (UniProt Q9P253) | inactive: 0.009 | inactive: -0.017 | inactive: -0.049 | inactive: -0.056 | inactive: -0.04 | inactive: -0.032 | inactive: -0.003 | inactive: -0.004 | inactive: -0.06 | inactive: 0.047 |
| WDR89 (UniProt Q96FK6) | inactive: -0.015 | inactive: -0.045 | inactive: -0.003 | inactive: -0.053 | inactive: 0.082 | inactive: 0.024 | inactive: 0.077 | inactive: 0.024 | inactive: -0.062 | inactive: 0.073 |
| WDR7 (UniProt Q9Y4E6) | inactive: -0.029 | inactive: -0.037 | inactive: -0.058 | inactive: -0.076 | inactive: -0.008 | inactive: 0.014 | inactive: -0.012 | inactive: 0.043 | inactive: -0.04 | inactive: 0.085 |
| WDR82 (UniProt Q6UXN9) | inactive: -0.027 | inactive: -0.009 | inactive: 0.017 | inactive: -0.017 | inactive: 0.005 | inactive: -0.03 | inactive: -0.018 | inactive: 0.018 | inactive: -0.023 | inactive: -0.016 |
| WDR91 (UniProt A4D1P6) | inactive: -0.003 | inactive: -0.012 | inactive: -0.009 | inactive: -0.001 | inactive: 0.002 | inactive: 0.048 | inactive: 0 | inactive: 0.038 | inactive: -0.05 | inactive: 0.052 |
| VPS13C (UniProt Q709C8) | inactive: -0.008 | inactive: 0.023 | inactive: 0.003 | inactive: -0.065 | inactive: 0.021 | inactive: -0.055 | inactive: 0.052 | inactive: -0.006 | inactive: -0.054 | inactive: 0.213 |
| VPS26A (UniProt O75436) | inactive: -0.013 | inactive: -0.017 | inactive: -0.033 | inactive: -0.083 | inactive: -0.004 | inactive: 0.058 | inactive: -0.014 | inactive: -0.006 | inactive: -0.013 | inactive: 0.02 |
| WNK4 (UniProt Q96J92) | inactive: -0.063 | inactive: -0.026 | inactive: -0.076 | inactive: 0.209 | inactive: -0.007 | inactive: -0.255 | inactive: 0.006 | inactive: 0.023 | inactive: -0.024 | inactive: -0.104 |
| WDR73 (UniProt Q6P4I2) | inactive: -0.027 | inactive: -0.043 | inactive: 0.032 | inactive: -0.011 | inactive: -0.017 | inactive: -0.011 | inactive: 0.011 | inactive: 0.02 | inactive: -0.024 | inactive: -0.015 |
| VWA8 (UniProt A3KMH1) | inactive: -0.122 | inactive: -0.126 | inactive: -0.07 | inactive: 0.167 | inactive: -0.005 | inactive: -0.392 | inactive: 0.012 | inactive: -0.018 | inactive: 0.015 | inactive: 0.047 |
| VPS37B (UniProt Q9H9H4) | inactive: 0.016 | inactive: -0.053 | inactive: 0.017 | inactive: 0.034 | inactive: -0.009 | inactive: -0.028 | inactive: 0.021 | inactive: 0.006 | inactive: -0.034 | inactive: -0.04 |
| VPS11 (UniProt Q9H270) | inactive: -0.025 | inactive: -0.027 | inactive: -0.029 | inactive: -0.008 | inactive: -0.04 | inactive: -0.083 | inactive: 0.024 | inactive: 0.039 | inactive: -0.077 | inactive: 0.065 |
| WRAP53 (UniProt Q9BUR4) | inactive: 0.028 | inactive: -0.065 | inactive: -0.032 | inactive: -0.022 | inactive: 0.022 | inactive: 0.025 | inactive: 0.052 | inactive: 0.007 | inactive: -0.027 | inactive: 0.089 |
| WDR24 (UniProt Q96S15) | inactive: -0.004 | inactive: 0.104 | inactive: -0.006 | inactive: -0.072 | inactive: 0.004 | inactive: 0.072 | inactive: 0.065 | inactive: -0.166 | inactive: -0.134 | inactive: 0.125 |
| WDR74 (UniProt Q6RFH5) | inactive: 0.046 | inactive: -0.038 | inactive: -0.036 | inactive: -0.027 | inactive: 0.032 | inactive: -0.019 | inactive: -0.023 | inactive: 0.013 | inactive: -0.06 | inactive: 0.002 |
| WDR12 (UniProt Q9GZL7) | inactive: -0.01 | inactive: -0.004 | inactive: 0.028 | inactive: -0.044 | inactive: -0.006 | inactive: 0.041 | inactive: -0.015 | inactive: 0.031 | inactive: -0.02 | inactive: 0.009 |
| VPS37C (UniProt A5D8V6) | inactive: 0.022 | inactive: -0.04 | inactive: 0.006 | inactive: 0.014 | inactive: 0.004 | inactive: -0.113 | inactive: 0.098 | inactive: -0.026 | inactive: -0.073 | inactive: 0.021 |
| WDR26, A0A499FIZ0 | inactive: -0.001 | inactive: -0.006 | inactive: -0.016 | inactive: -0.025 | inactive: 0.016 | inactive: -0.025 | inactive: -0.008 | inactive: 0.051 | inactive: 0.006 | inactive: 0.015 |
| WDR75 (UniProt Q8IWA0) | inactive: -0.001 | inactive: -0.036 | inactive: -0.131 | inactive: -0.073 | inactive: 0.009 | inactive: 0.069 | inactive: 0.001 | inactive: -0.03 | inactive: -0.052 | inactive: -0.027 |
| XPC (UniProt Q01831) | inactive: -0.061 | inactive: 0.029 | inactive: -0.087 | inactive: 0.059 | inactive: 0.038 | inactive: -0.076 | inactive: 0.025 | inactive: -0.026 | inactive: -0.125 | inactive: -0.011 |
| WIPF2 (UniProt Q8TF74) | inactive: -0.026 | inactive: -0.009 | inactive: -0.009 | inactive: -0.088 | inactive: 0.034 | inactive: 0.029 | inactive: -0.05 | inactive: 0 | inactive: -0.061 | inactive: -0.007 |
| XPA (UniProt P23025) | inactive: -0.079 | inactive: -0.091 | inactive: -0.043 | inactive: -0.039 | inactive: 0.08 | inactive: 0.014 | inactive: -0.03 | inactive: 0.013 | inactive: -0.002 | inactive: 0.035 |
| WDTC1 (UniProt Q8N5D0) | inactive: 0.025 | inactive: -0.031 | inactive: 0 | inactive: -0.024 | inactive: 0.072 | inactive: 0.025 | inactive: 0 | inactive: -0.063 | inactive: -0.065 | inactive: 0.046 |

Two entries picked at random from the list so far, as already listed:

| Target | log2 fold change (lapatinib) | log2 fold change (pictilisib) | log2 fold change (crizotinib) | log2 fold change [1] | log2 fold change (duvelisib) | log2 fold change (gandotinib) | log2 fold change (tozasertib) | log2 fold change (doramapimod) | log2 fold change (bafetinib) | log2 fold change [2] |
| --- | --- | --- | --- | --- | --- | --- | --- | --- | --- | --- |
| WDR24 (UniProt Q96S15) | inactive: -0.004 | inactive: 0.104 | inactive: -0.006 | inactive: -0.072 | inactive: 0.004 | inactive: 0.072 | inactive: 0.065 | inactive: -0.166 | inactive: -0.134 | inactive: 0.125 |
| XPA (UniProt P23025) | inactive: -0.079 | inactive: -0.091 | inactive: -0.043 | inactive: -0.039 | inactive: 0.08 | inactive: 0.014 | inactive: -0.03 | inactive: 0.013 | inactive: -0.002 | inactive: 0.035 |
